Assay results from paper PMC3470543, “Effects of the Missense Mutations in Canine BRCA2 on BRC Repeat 3 Functions and Comparative Analyses between Canine and Human BRC Repeat 3” (PLoS ONE, 2012).
Residue numbers refer to the chain shown, from its start. These are yes or no findings as the source states them, for the method shown. Some binding calls cover weakened binding; strength is not graded here. For some assays here: Where a sequence is shown, tags or fusion partners need not be part of it.

Chains of the proteins cited; added tags and fusions are not shown.
UniProt Q8MKI8: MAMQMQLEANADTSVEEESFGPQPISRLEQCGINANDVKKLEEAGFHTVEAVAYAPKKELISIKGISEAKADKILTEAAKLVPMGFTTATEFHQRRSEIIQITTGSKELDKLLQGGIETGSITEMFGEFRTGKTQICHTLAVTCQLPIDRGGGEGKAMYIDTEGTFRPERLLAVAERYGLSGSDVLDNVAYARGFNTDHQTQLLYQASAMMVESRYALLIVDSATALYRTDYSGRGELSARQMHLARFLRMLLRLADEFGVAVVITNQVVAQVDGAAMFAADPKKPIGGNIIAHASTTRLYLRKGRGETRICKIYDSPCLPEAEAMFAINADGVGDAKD

Experiments:
[1] = molecular target: VP16 transactivation domain-fused canine RAD51 (canine) (UniProt Q8MKI8); experiment: two-hybrid; modified mammalian two-hybrid (binding interference) in HeLa cells: VP16- and DBD-fused RAD51 with EGFP-fused BRC3 interference constructs
[2] = molecular target: T1, Gal4-DBD-fused K1435R mutant canine BRC3 (canine) (UniProt Q8MKI9); experiment: two-hybrid; mammalian two-hybrid in HeLa cells: Gal4-DBD-fused BRC constructs and VP16 transactivation domain-fused RAD51; luciferase (pGluc, normalised to pRL-TK) 48 h after transfection
T1 sequence: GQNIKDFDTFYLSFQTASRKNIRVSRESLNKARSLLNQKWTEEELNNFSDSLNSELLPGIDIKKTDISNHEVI

[3] = molecular target: T2, Gal4-DBD-fused wild-type canine BRC3 (canine) (UniProt Q8MKI9); experiment: as above
T2 sequence: T1 sequence with R26K

| binding [1] | binding [2] | binding [3] | Substance |
| --- | --- | --- | --- |
| binds | binds | binds | VP16 transactivation domain-fused canine RAD51 (from UniProt Q8MKI8 1-339) |
| – | binds | binds | VP16 transactivation domain-fused human RAD51 (from UniProt Q06609-1 1-339) |
